Results as given in article PMC5131891, “Structural Insights into Streptococcal Competence Regulation by the Cell-to-Cell Communication System ComRS” (PLoS Pathogens, 2016).

How the values were obtained:
Experiment in all cases: EMSA
[1] = system: T1, ComR R92A (Streptococcus thermophilus LMD-9); settings: XIP 0.2-1.2 uM, ComR 4 uM; EMSA: 20 mM Tris-HCl pH 8.0, 150 mM NaCl, 1 mM EDTA, 10% glycerol, 1 mg/ml BSA, 37 C 10 min, 40 ng DNA in 20 ul; recombinant protein; protein details: C-terminal StreptagII
T1 sequence (looked up, limits assumed): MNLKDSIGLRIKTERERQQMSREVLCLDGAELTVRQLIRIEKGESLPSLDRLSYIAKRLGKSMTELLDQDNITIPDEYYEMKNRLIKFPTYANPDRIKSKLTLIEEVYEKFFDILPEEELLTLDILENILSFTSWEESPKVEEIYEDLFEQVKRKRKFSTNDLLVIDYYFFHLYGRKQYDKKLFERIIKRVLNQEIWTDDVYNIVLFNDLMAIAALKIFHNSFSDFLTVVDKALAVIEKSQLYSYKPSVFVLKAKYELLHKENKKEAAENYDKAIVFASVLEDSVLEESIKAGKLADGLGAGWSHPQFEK

[2] = system: T2, ComR K87A (Streptococcus thermophilus LMD-9); settings: XIP 0.2-1.2 uM, ComR 4 uM; EMSA: 20 mM Tris-HCl pH 8.0, 150 mM NaCl, 1 mM EDTA, 10% glycerol, 1 mg/ml BSA, 37 C 10 min, 40 ng DNA in 20 ul; recombinant protein; protein details: C-terminal StreptagII
T2 sequence (looked up, limits assumed): T1 sequence (looked up, limits assumed) with K87A, A92R

[3] = system: T3, ComR F171A/Y174A (Streptococcus thermophilus LMD-9); settings: XIP 0.2-1.2 uM, ComR 4 uM; EMSA: 20 mM Tris-HCl pH 8.0, 150 mM NaCl, 1 mM EDTA, 10% glycerol, 1 mg/ml BSA, 37 C 10 min, 40 ng DNA in 20 ul; recombinant protein; protein details: C-terminal StreptagII
T3 sequence (looked up, limits assumed): T1 sequence (looked up, limits assumed) with A92R, F171A, Y174A

[4] = system: T4, ComR K246A (Streptococcus thermophilus LMD-9); settings: XIP 0.2-1.2 uM, ComR 4 uM; EMSA: 20 mM Tris-HCl pH 8.0, 150 mM NaCl, 1 mM EDTA, 10% glycerol, 1 mg/ml BSA, 37 C 10 min, 40 ng DNA in 20 ul; recombinant protein; protein details: C-terminal StreptagII
T4 sequence (looked up, limits assumed): T1 sequence (looked up, limits assumed) with A92R, K246A

[5] = system: T5, ComR K100A (Streptococcus thermophilus LMD-9); settings: XIP 0.2-1.2 uM, ComR 4 uM; EMSA: 20 mM Tris-HCl pH 8.0, 150 mM NaCl, 1 mM EDTA, 10% glycerol, 1 mg/ml BSA, 37 C 10 min, 40 ng DNA in 20 ul; recombinant protein; protein details: C-terminal StreptagII
T5 sequence (looked up, limits assumed): T1 sequence (looked up, limits assumed) with A92R, K100A

[6] = system: T6, ComR Y91A (Streptococcus thermophilus LMD-9); settings: XIP 0.2-1.2 uM, ComR 4 uM; EMSA: 20 mM Tris-HCl pH 8.0, 150 mM NaCl, 1 mM EDTA, 10% glycerol, 1 mg/ml BSA, 37 C 10 min, 40 ng DNA in 20 ul; recombinant protein; protein details: C-terminal StreptagII
T6 sequence (looked up, limits assumed): T1 sequence (looked up, limits assumed) with Y91A, A92R

[7] = system: T7, ComR E117A/E118A (Streptococcus thermophilus LMD-9); settings: no XIP, ComR up to 3.5 uM, binds, but less than E146A/D147A; EMSA: 20 mM Tris-HCl pH 8.0, 150 mM NaCl, 1 mM EDTA, 10% glycerol, 1 mg/ml BSA, 37 C 10 min, 40 ng DNA in 20 ul; recombinant protein; protein details: C-terminal StreptagII
T7 sequence (looked up, limits assumed): T1 sequence (looked up, limits assumed) with A92R, E117A, E118A

[8] = system: T8, ComR T90A (Streptococcus thermophilus LMD-9); settings: XIP 0.2-1.2 uM, ComR 4 uM; EMSA: 20 mM Tris-HCl pH 8.0, 150 mM NaCl, 1 mM EDTA, 10% glycerol, 1 mg/ml BSA, 37 C 10 min, 40 ng DNA in 20 ul; recombinant protein; protein details: C-terminal StreptagII
T8 sequence (looked up, limits assumed): T1 sequence (looked up, limits assumed) with T90A, A92R

Measured: binding result

CAAAATCGAGTAGTGACATTTATGTCACTACTTTTTTGTT (double strand) [Cy3-boxPster_1655 wt (40 bp)]
binds more weakly: all assays above

Positions count from the first letter of the chain named. Construct, isoform or probe ends are uncertain for at least one entry. Weaker means in comparison with the reference protein, sequence or condition of that experiment. For some assays here: At least one verdict was read from the data and is not stated in words by the source. Where a protein sequence is shown, tags need not be part of it.
